Laboratory results taken from PubChem BioAssay AID504847 (National Center for Advancing Translational Sciences (NCATS), 2011).
Screen size: about 400,000 compounds; about 3,700 (0.93%) were called active. This list was built around the results that the source calls inconclusive (neither active nor inactive); the mix of calls is not that of the screen. The call rests on the fitted dose curve; in most records, active means well fitted inhibition curve with a large enough effect; inconclusive means small, poorly fitted or top-dose-only effect, or another doubt; inactive means no such curve, though single readings can be large or run the other way. Potencies beside an inconclusive call are fits to weak or partial responses and may not hold up.

Amino acid sequences for entries named in this document (tags omitted). A change or cut given only in a name is not applied to a line headed by its entry.
UniProt P11473: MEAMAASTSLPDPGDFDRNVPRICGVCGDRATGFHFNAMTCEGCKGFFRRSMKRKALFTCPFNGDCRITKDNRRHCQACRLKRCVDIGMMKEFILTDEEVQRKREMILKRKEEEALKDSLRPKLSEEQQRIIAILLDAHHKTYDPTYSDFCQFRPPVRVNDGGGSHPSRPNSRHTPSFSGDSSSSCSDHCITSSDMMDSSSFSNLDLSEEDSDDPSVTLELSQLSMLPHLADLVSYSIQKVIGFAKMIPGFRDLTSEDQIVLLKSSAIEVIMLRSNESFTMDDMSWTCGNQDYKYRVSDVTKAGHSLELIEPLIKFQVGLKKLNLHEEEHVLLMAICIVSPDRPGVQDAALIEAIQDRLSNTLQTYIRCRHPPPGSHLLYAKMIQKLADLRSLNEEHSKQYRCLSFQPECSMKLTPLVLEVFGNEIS

Target: Vitamin D3 receptor (Homo sapiens) (UniProt P11473)
Assay: Inhibitors of the vitamin D receptor (VDR): qHTS
Details: VDR-SRC2-3 peptide fluorescence polarization, 2 h; max response, negative = inhibition: active compounds read low
From the text: The vitamin D receptor (VDR) is a ligand-activated transcription factor and is partially responsible for the regulation of the endocrine system. This includes the transcriptional regulation of genes involved in the production of the parathyroid hormone (PTH) and the regulation of the blood calcium level. High levels of PHT can cause hypercalcemia in the case of primary and tertiary hyperparathyroidism. The VDR-mediated gene regulation, activated by its ligand 1,25-dihydroxyvitamin D3 (1,25-(OH)2D3), is governed by the recruitment of coactivators. Our hypothesis is that small molecules, with the ability to inhibit the interaction between VDR and certain coactivators, are able to selectively modulate VDR-mediated transcription. Our long term objective is the application these VDR-coactivator inhibitors to study the role of VDR-coactivator binding for specific VDR regulated genes. Ultimately, these molecules can be developed into new treatments for hypercalcemic hyperparathyroidism. No small molecule or non-peptide inhibitors are known for the VDR-coactivator interaction.
In a collaboration between the University of Wisconsin, Milwaukee and the NIH Chemical Genomics Center (NCGC) a HTS-compatible enzymatic assay was developed. The assay uses fluorescence polarization as its read-out to measure the inhibition between VDR and coregulator peptide SRC2-3 exerted by small molecules. This assay was used to screen the NIH Molecular Libraries Small Molecule Repository (MLSMR).
NIH Chemical Genomics Center [NCGC]
NIH Molecular Libraries Probe Centers Network [MLPCN]
Assay Submitter (PI): Alexander Arnold, University of Wilwaukee
Both solutions are kept at 4 deg C and protected from light and dispensed using a Kalypsys dispenser. Then 23nl of compounds and controls are added with Kalypsys pintool. […] Plate is centrifuged at 1000 RPM for 15 seconds to remove any residual bubbles. The plate is then incubate at ambient room temperature for 2 hours.
On the % scale 0 is the no-effect control and ±100 the full control effect; potency means the concentration at half of the fitted maximal effect.

Potency, active:
CN(CC(=O)Nc1cccc(Cl)c1)S(=O)(=O)c1ccc2c(c1)n(C)c(=O)c(=O)n2C 79.4 µM, COc1ccc(C2CC2/C(=N/O)c2ccccc2)cc1 (stereo not given) 20 µM, CCC(=O)OCCNc1cc(Sc2nc3ccccc3s2)c2nonc2c1[N+](=O)[O-] 8.91 µM, CCC(=O)Oc1c(Sc2ccc(Cl)cc2)c(C)nn1-c1ccccc1 79.4 µM

Potency, inconclusive:
Cc1ccc(N/N=C(\Cc2nc3ccccc3[nH]2)c2ccccc2)cc1 89.1 µM [inhibitor, single point], C/C=C/CSc1nc2c(c(=O)[nH]c(=O)n2C)n1Cc1ccc(C)cc1 89.1 µM [inhibitor, single point], O=C(C=Cc1ccco1)c1ccc2ccccc2c1 89.1 µM [inhibitor, single point], CC(C)Cn1c(-c2ccc(Br)cc2)c[nH]c1=S 70.8 µM [inhibitor, partial curve, poor fit], CC(=O)Nc1sc(N/N=C/c2ccccc2)nc1-c1ccc(C)cc1 17.8 µM [inhibitor, partial curve, poor fit], COc1ccc(-n2c(SCC(=O)C(C)(C)C)nc3ccsc3c2=O)cc1 89.1 µM [inhibitor, partial curve, poor fit], CC(C)C[C@@H](CNCC(=O)[C@H](CC(C)C)NC(=O)c1[nH]cnc1C(=O)N[C@H](CN)CC(C)C)NC(=O)c1nc[nH]c1C(=O)N[C@@H](Cc1ccccc1)C(=O)O 79.4 µM [inhibitor, partial curve, poor fit], CCN(CC)c1ccc(NC(=O)c2ccccc2)cc1S(=O)(=O)Nc1ccccc1OC 39.8 µM [inhibitor, partial curve, poor fit], O=C(OCC(=O)N1CCCCC1)c1ccccc1SCC(=O)N1CCCCC1 100 µM [inhibitor, single point], CC(C)N=C1NN=C(c2ccc(Cl)c(Cl)c2)CS1 15.8 µM [inhibitor, partial curve, poor fit], CC(=O)N1CCC[C@@]2(CCN(c3ccccc3)C2)C1 56.2 µM [inhibitor, partial curve, poor fit], O=C(O)CSC1=NS(=O)(=O)c2ccccc21 56.2 µM [inhibitor, partial curve], CC(C)n1c(SCCCc2ccccc2)nc2c1c(=O)[nH]c(=O)n2C 56.2 µM [inhibitor, partial curve, poor fit], O=[N+]([O-])c1cc(-c2ccc(/C=N/c3nc4ccccn4c3-c3ccco3)o2)ccc1Cl 70.8 µM [inhibitor, single point], O=C(c1cc2ccccc2oc1=O)N(Cc1cccs1)Cc1cccs1 35.5 µM [inhibitor, single point], CCOC(=O)c1ccc(S(=O)(=O)Nc2nc3cc(S(=O)(=O)NC4=NCCCCC4)ccc3s2)cc1 8.91 µM [inhibitor, full curve], C=CCn1c(N2CCOCC2)nc2c1c(=O)[nH]c(=O)n2C 89.1 µM [inhibitor, single point], COc1ccc(NC(=O)Nc2ccc3c(c2)N(C)C(=O)CS3)cc1OC 56.2 µM [inhibitor, partial curve, poor fit], CSc1ccc(/C=N/NC(=O)CN2CCN(Cc3ccc(Cl)cc3)CC2)cc1 56.2 µM [inhibitor, partial curve, poor fit], CCOC(=O)C1=C(C)N=c2s/c(=C\c3cccc(OCC(=O)O)c3)c(=O)n2C1c1ccccc1 (stereo not given) 50.1 µM [inhibitor, partial curve, poor fit], CCCc1nn(-c2cc(Cl)ccc2OC)c2c1C(=O)CC(C)(C)C2 89.1 µM [inhibitor, single point], O=S(=O)(Nc1c(Br)cc(Br)c2cccnc12)C1CC1 89.1 µM [inhibitor, single point], COc1ccc(OCc2nnc3n2N=C(c2ccccc2)C(CC(=O)O)S3)cc1 (stereo not given) 14.1 µM [inhibitor, full curve, poor fit], CC(C)Nc1nc2ccccc2c(=O)[nH]1 70.8 µM [inhibitor, partial curve, poor fit], O=C(c1cccc(F)c1)N1CCC[C@@]2(CCN(C(c3ccccc3)c3ccccc3)C2)C1 79.4 µM [inhibitor, single point], CC(=O)OC1(C(C)=O)CCC2C3CC(C(F)(F)F)C4=CC(=O)CCC4(C)C3CCC21C (stereo not given) 79.4 µM [inhibitor, partial curve], COc1ccc(CC(=O)NCC2CCCN(Cc3ccc(SC)cc3)C2)cc1 (stereo not given) 28.2 µM [inhibitor, full curve, poor fit], COc1ccc(NC(C)=O)cc1CP(=O)(c1ccccc1)c1ccccc1 39.8 µM [inhibitor, single point]

Max response, negative = inhibition, inactive:
COC(=O)CC[C@@H](C(=O)O)N1C(=O)c2ccccc2C1=O -4.76%, COc1cc(CC2C(=O)Nc3ccccc32)cc(C)c1O (stereo not given) -22.2%, Cc1ccc(-n2c(Cc3cccn3C)nnc2SCC(N)=O)cc1 16.9%, CC(=O)c1ccc(OCC(=O)N(C)CC(=O)Nc2ccc(N3CCOCC3)cc2)cc1 -3.73%, CCC(=O)C1=C(c2ccc(F)cc2)N(C(=O)CC)n2cnnc2S1 -1.37%, COc1ccc(NC(C)=O)cc1S(=O)(=O)N1CCn2cccc2C1C (stereo not given) -3.63%, CC(=O)/C(=N\Nc1ccc(Cl)cc1)Sc1nnc(-c2ccccc2)n1-c1ccccc1 -6.73%, CCc1ccccc1NC(=O)Nc1cccs1 -0.0949%
